Among the data in PubChem BioAssay AID1508600 (Functional Genomics Laboratory (NCATS/FGL), 2020) are z-score values, retold here.

Screen size: about 53,000 sequences; about 3,700 (7%) were called active.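 The calls were made as follows: active = gene knockdowns whose robust z-score for IL-1 alpha signal is at least 2 or at most -2, so actives lie on both sides; inactive = the rest.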 Some of the results follow.

A short description of the experiment: Components of the Cytosolic LPS Sensing Pathway: Gene Identification via Genome-wide siRNA Screen.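 Also: robust z of the log signal after scaling to non-targeting control siRNA wells of the plate.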 The conditions noted are these: RAW264.7 macrophages, IL-1a HTRF, actives lie on both sides, screened at 100 nM (by protocol), cells primed 5 h with Pam3CSK4 first. A digest of the protocol: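 Read-out: IL-1a HTRF on supernatant, divided by plate negative-control median ×100, log-transformed and converted to robust z-score. Cells were RAW264.7 given 100 nM siRNA, Pam3CSK4-primed 5 hours, then LipidA-transfected 24 hour.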
(In general: TR-FRET usually uses a lanthanide donor and a delayed reading to cut background.)
Regarding GGAAAAACCGUCCAGAUCCTT against Uck2, the z-score is inactive: -1.06.

In the case of GGAGCUCUCGAAGGAUUGUTT against Eda2r, the z-score is inactive: -0.768.

For the sequence GGAUCUUCGUAGAAUGACATT against Tmem178b, the z-score was inactive: 0.283.

For the sequence CCUGUGUGUGAAUCUCGUUTT against C1qb, the z-score is inactive: 1.11.

With GCAUAACAAAGAGGUUGAATT against Polr3a, the z-score was inactive: 0.969.

Consider GGAUUCUGUGCUUUCCUGGTT against Pomt2, for which the z-score is inactive: -0.77.

Regarding CCUGAUCCCGGUGUAUCAUTT against Mrpl38, the z-score is inactive: -1.01.

For the sequence CCAGAUGAAUGUAACACGCTT against Lipi, the z-score was inactive: 0.474.

With GGAUAAGGCCAUCAAGAAGTT against Rps26, the z-score is inactive: -0.396.

As to GGAUGAACCACCACAAUUGTT against Olfr1233, the z-score was inactive: -1.16.

As to GGGAGAAGAUAUGUUUUUATT against Sc5d, the z-score was inactive: -0.264.

Turning to GCUCAUGCCAAGGUACGAUTT against Ints1, the z-score was inactive: -0.137.

As for GGGACAAGUGGUUGAAACCTT against Prmt8, the z-score is active: -2.01.

As to CGCGGAGUUUCGAAGUGUCTT against Drd4, the z-score was active: 3.64.

Regarding GGUUGCCUCUUAAAUGUUGTT against Nyx, the z-score is inactive: -0.775.

For the sequence GACUAUCCUACUUACUAUATT against Tmem53, the z-score is inactive: 0.367.

Regarding GGACCUAUACAAGGGAGGUTT against Il1f10, the z-score was inactive: 1.17.

Consider “GGGCCCUUGACCUACCAUUTT against D830044D21Rik”, for which the z-score was inactive: -0.11.

For the sequence CCAUACUGGCAUACCUUGCTT against Mrgprb8, the z-score was inactive: 0.127.

For the sequence GGUACUUUUAUCUUAGCUATT against Paral1, the z-score is inactive: 0.0889.

As to CCAAAUUAGCAACAUGGAATT against Deptor, the z-score is inactive: 0.17.

Consider CCAAUGUAAGACACGAUGUTT against Gpr151, for which the z-score was inactive: 1.36.

On to GCAAUAUUUUCCCUAGAUCTT against Vmn1r234, for which the z-score was inactive: -0.357.

Consider “CGGCACUAAACUUCGUGAGTT against 1700084P21Rik”, for which the z-score was inactive: -0.969.

For CGACACAUAUGCUAGCUUGTT against Slc7a5, the z-score is inactive: -0.855.

With GGUUCUGAUAGCUCAAGAGTT against Polr2b, the z-score was inactive: -1.96.

GGCUAAAAGUAGUGAAUGATT against Ccr2: the z-score was inactive: -1.73.

Turning to GCAUUUCGACGCGGCUUUUTT against Snapc1, the z-score is inactive: 0.617.

Turning to GGGUAUUCUUGCUUUAGCUTT against Csnk1g3, the z-score was inactive: 0.302.

On to GGAUUCUGCCUGAUCAAUGTT against Rab5if, for which the z-score is inactive: -0.951.

As to UACUCGUAUUCUUAAUUGCTT against Acsl1, the z-score was inactive: -0.272.

Turning to CGAGAGUGUGCCAAUAUUGTT against Tyrp1, the z-score is inactive: -0.351.

Regarding GGAUGUGGAAUCAUGCUAUTT against Tnpo3, the z-score was active: 2.41.

With GGUUGGUGUAUUCUGGCAGTT against Herpud2, the z-score is inactive: -0.175.

As to GGCAGCUUUCCUAUUGAAUTT against Tex19.1, the z-score is inactive: 0.233.

For the sequence GGAACCUCUCAGAUUUUCATT against Zfp599, the z-score was inactive: 0.828.

For GCACCAUGUUCAUCUUUACTT against Tas2r144, the z-score was inactive: 0.373.

Turning to GGUACACAUGAGACAAUAUTT against Whamm, the z-score was active: -2.18.

On to GGGCUAAUAUACAGAAAUATT against Rrm2b, for which the z-score was inactive: -0.126.

Regarding GCCAAUAAGGAAGCGGAUUTT against Cenpq, the z-score was inactive: 1.06.

Turning to GUUACCUCGUGGAAAGCAUTT against Vmn1r43, the z-score was inactive: -0.345.

Turning to GGAAGAUUGUAACUGAUUATT against Cpa4, the z-score is inactive: -1.16.

CCUGAAUUGGUACCUCACATT against Ugt3a1: the z-score was inactive: -0.427.

Take GGCUGAGGUGCUACAUACATT against Ctu1: the z-score was inactive: -1.08.

Consider CCAAUGCUUCUAGUUAACATT against Olfr155, for which the z-score is inactive: -0.299.

For GGAAGUAGCUUAUUGUUCUTT against Polr2b, the z-score is active: -2.69.

In the case of GCAAUAAGUUGACUGUGGATT against Zxda, the z-score was inactive: -0.00967.

In the case of GGUGAUGGAAGAAGAAGGCTT against Stk38, the z-score is inactive: -0.53.

Take GGAGCAAGAUGUUUCUGAATT against Wrap53: the z-score was inactive: 0.869.

Consider GCGACAACUUAAAGACCGGTT against Cand2, for which the z-score was inactive: 0.0878.

For GGAUGACUCGGAGAACUACTT against Psca, the z-score was inactive: 1.38.

For the sequence “GGAAAUCACAUUGUCCUGCTT against 3010003L21Rik”, the z-score is inactive: 1.13.

Consider CGAGAAUACCAAACUCGUGTT against Usp17ld, for which the z-score was inactive: -0.255.

GCGUGGUUCAGUCAGGUAUTT against Bod1: the z-score was inactive: -1.25.

As for GGCUUUAGAGAAAGAAGUATT against Med4, the z-score was inactive: 1.

For the sequence GGGCAGGAGAAGGAUUCAUTT against Rit1, the z-score is inactive: -0.687.

As for GGACUCCACUUUUGAAAACTT against Cox16, the z-score was inactive: -1.06.

As to CGGUAAACAUCAGUAAUGATT against Drd5, the z-score is inactive: 0.0608.

For GCAUCCUCAGCCGUAUAUCTT against Ndufb9, the z-score was inactive: 0.577.

On to GGUGUCACCAUUUCAGUGGTT against Lbp, for which the z-score is inactive: 0.703.

With CCUGGAUGCAUGGUUAUUATT against Cyp2ab1, the z-score was active: 2.69.

GGGUUACAAUAACUGGACATT against Ggcx: the z-score was active: 2.32.

With CUGUAUGUUAUCUCUACACTT against Olfr1513, the z-score is inactive: 0.469.

As for GGUUUUCUUUUCUUCUGCCTT against Aar2, the z-score was inactive: -1.11.

In the case of GGGCCAGACAAUCAAACUGTT against Kcne3, the z-score was inactive: 1.11.

For GGUUCUGUCUUUUACUUUCTT against Olfr1496, the z-score is inactive: 0.232.

Regarding GGAUGACAUAUUUUUGGACTT against Mpv17l, the z-score is inactive: 0.667.

Consider GGUAUAGCACCAUCCUGACTT against Olfr651, for which the z-score is inactive: -0.0407.

GCUUCUCCGCUUAUUGGUCTT against Slc46a2: the z-score is inactive: -0.245.

Consider GGCUUUGGCAUGAUUGGCCTT against Tmem214, for which the z-score is active: -2.72.

Consider GGCAACUGUGUGCUUGUGATT against Pla2g2d, for which the z-score was inactive: -1.3.

For the sequence GCUGUUACUCAGCAGAGAGTT against Bach2, the z-score was inactive: -1.02.

With CCUAUUAAGCGAUCCAGAUTT against Kcnj16, the z-score was inactive: -1.47.

As for CCCAUGAAAUUUCUGUGCGTT against Adcy3, the z-score is inactive: -1.41.

CGUGUAAACGAAGUUAUCATT against G2e3: the z-score was inactive: -0.356.

With GUACUUGAGGCAGAAGGCATT against Cyp3a11, the z-score was inactive: 1.35.

On to GGGUAGCUCAGAAAGGUUATT against Tafa3, for which the z-score is inactive: -1.55.

Regarding CCGGCUACUUCAUACCAGATT against Fxyd6, the z-score is inactive: -0.236.

For the sequence GCAGUGUGAAAUCAACUAUTT against Frg1, the z-score was inactive: -0.406.

For the sequence CCGCCAAGCUCAACUAUCUTT against Top1mt, the z-score was inactive: -0.787.

As to GGAUUGUCAGCCAAGAAACTT against Uba7, the z-score is inactive: -0.085.

In the case of CGAGGUCCUUGAUUAUAUCTT against Ciita, the z-score is inactive: -0.364.

GGAAAAGCUUUGUAUUACUTT against Adgra2: the z-score was inactive: 1.35.

In the case of GGUUGUUAUUGGAAAAGCATT against Pdpk1, the z-score was inactive: -1.32.

GGUGGAAAAUUGAUACAAATT against Stx17: the z-score was inactive: 0.689.

With GGGAUACGACUAAACUAUUTT against Gucy1a1, the z-score is inactive: 0.475.

Consider GGCAUGGAAUAUGAUGUUATT against Nlrp9b, for which the z-score was inactive: -1.72.

On to GCUGUUAACUAUCUGGAUATT against Prokr1, for which the z-score is inactive: 0.59.

Consider GGAUGUUUUCCAGAAGAACTT against Map3k6, for which the z-score is inactive: 0.623.

With GCAAUGAAUUCGACCCAGATT against Ppp2r5e, the z-score is inactive: -0.175.

GGCUACAGCAAGAAGACUUTT against Ctsw: the z-score was active: 3.08.

Regarding CGGUUAACUGGAAAGUGCGTT against Tmem132e, the z-score was active: 2.99.

Take CCUCGAGAGACUUUCAUGGTT against F2: the z-score is inactive: -0.475.

Turning to GCUUCACCACUGGACAAAGTT against Adh1, the z-score was inactive: -0.167.

For GCUUCCUCUUAUCAUAUAATT against Rgs13, the z-score was inactive: -0.119.

For GGACGAGAAGCUCACUGUATT against Oaz2, the z-score is inactive: -0.425.

Consider GCUAAACACGCUGAAUAUUTT against Phf10, for which the z-score is inactive: 0.107.

Consider GCACUUUCAUGGAUAUAAGTT against Rab22a, for which the z-score is inactive: -0.366.

Take GGCAAGUUUGUCCAGUGGATT against Phc3: the z-score is inactive: -0.726.

For the sequence GGGUAUAAGGUCCCUUUUUTT against Gbp8, the z-score was inactive: 0.709.

With GGAGACUGUAGACUUAAAGTT against Rnf25, the z-score is inactive: -1.24.

On to GGGAAAAUUGAAGCUUGUATT against Tfam, for which the z-score is inactive: 0.402.

In the case of GGGAAUCCGGAGAAAAUUATT against Aco1, the z-score was inactive: -1.17.

Take CCCAGUUGCUGUUCUUGACTT against Defb40: the z-score was inactive: 0.553.

As for CCGUUAAGGUUGAUCUAAUTT against Ccdc34, the z-score is inactive: 0.277.

In the case of GCCACACUUUAAUUUCGCATT against Ttc8, the z-score was inactive: -0.457.

CAUAUUCCUUGCAUUACAATT against Taok3: the z-score is inactive: 0.929.
